Assay results from the supplement of paper PMC10849652.
The other results are listed elsewhere or left out.

The chains behind the UniProt entries cited, without tags or fusion partners. Where a name states a change or a piece, a line headed by the entry shows the natural chain unless it says otherwise.
UniProt K7EIQ3: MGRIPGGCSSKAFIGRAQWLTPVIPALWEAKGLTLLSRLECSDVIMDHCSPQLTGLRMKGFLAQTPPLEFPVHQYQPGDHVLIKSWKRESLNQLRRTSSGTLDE
UniProt P35789: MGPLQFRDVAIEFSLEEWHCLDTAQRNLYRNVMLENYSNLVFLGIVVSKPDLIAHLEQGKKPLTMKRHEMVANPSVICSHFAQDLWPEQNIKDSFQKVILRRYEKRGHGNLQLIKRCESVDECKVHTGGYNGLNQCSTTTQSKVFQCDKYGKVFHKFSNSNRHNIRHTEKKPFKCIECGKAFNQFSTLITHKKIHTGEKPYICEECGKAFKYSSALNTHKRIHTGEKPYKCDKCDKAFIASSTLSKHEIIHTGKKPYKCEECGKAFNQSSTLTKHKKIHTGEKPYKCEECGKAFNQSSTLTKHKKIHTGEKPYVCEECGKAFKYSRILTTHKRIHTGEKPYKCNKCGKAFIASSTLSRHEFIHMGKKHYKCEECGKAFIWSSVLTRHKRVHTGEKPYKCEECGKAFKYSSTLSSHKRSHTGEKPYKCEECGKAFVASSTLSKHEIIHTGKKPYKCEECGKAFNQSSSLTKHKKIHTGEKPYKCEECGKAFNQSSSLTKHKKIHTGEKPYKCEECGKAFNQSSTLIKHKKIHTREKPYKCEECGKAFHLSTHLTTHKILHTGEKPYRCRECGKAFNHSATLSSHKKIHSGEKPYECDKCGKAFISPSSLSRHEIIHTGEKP
UniProt Q6NSZ9: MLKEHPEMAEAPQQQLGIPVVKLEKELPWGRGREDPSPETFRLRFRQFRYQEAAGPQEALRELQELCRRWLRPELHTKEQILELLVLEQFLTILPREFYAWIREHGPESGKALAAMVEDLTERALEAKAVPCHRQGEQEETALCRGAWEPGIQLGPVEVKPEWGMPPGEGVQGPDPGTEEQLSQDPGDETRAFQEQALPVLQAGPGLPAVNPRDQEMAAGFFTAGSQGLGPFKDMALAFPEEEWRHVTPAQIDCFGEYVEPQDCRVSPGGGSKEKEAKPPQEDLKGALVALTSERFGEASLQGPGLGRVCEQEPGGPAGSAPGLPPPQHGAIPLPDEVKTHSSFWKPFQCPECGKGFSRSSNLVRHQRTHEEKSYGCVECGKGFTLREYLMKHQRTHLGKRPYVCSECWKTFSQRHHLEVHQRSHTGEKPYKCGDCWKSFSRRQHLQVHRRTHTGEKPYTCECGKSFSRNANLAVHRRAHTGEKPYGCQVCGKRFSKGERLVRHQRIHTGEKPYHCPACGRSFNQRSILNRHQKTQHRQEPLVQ
UniProt Q9BRR0: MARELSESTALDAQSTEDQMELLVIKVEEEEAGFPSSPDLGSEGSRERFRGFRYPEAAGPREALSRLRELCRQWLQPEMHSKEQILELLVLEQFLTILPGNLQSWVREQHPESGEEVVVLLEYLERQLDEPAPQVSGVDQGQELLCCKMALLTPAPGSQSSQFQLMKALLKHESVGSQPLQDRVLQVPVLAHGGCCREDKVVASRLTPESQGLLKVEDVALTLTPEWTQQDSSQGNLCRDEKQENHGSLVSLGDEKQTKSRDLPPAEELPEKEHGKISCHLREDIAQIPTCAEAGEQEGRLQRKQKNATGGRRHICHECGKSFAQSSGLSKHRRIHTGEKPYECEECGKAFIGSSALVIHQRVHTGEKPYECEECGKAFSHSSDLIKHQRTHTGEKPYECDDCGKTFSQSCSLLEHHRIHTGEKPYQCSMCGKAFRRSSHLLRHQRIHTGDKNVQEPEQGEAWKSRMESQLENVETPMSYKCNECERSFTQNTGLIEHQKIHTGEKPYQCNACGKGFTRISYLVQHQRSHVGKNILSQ
UniProt Q8TCN5: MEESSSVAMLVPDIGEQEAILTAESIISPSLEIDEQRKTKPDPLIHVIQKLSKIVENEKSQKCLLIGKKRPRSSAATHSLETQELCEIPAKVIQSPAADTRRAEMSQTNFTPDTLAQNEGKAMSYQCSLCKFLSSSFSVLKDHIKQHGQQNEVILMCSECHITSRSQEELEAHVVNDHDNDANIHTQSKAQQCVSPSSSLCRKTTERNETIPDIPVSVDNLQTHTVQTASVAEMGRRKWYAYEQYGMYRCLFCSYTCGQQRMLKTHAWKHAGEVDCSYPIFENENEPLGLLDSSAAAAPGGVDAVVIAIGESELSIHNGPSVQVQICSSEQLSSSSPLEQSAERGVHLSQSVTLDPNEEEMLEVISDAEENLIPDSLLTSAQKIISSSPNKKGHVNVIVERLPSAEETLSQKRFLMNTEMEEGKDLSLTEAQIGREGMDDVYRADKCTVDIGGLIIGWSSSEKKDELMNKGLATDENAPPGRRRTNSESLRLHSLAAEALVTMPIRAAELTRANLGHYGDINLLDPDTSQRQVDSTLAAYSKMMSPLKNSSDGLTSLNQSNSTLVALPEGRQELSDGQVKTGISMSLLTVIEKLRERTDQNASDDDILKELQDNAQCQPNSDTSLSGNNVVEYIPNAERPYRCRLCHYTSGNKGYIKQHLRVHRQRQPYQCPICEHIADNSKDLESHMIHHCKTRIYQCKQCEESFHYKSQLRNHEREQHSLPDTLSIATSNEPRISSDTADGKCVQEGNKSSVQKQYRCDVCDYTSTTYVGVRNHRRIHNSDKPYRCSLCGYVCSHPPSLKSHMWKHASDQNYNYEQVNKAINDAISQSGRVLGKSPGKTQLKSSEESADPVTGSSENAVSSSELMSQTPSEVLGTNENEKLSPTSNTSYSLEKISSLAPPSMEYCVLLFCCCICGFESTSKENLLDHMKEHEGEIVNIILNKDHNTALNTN
UniProt Q9UK10: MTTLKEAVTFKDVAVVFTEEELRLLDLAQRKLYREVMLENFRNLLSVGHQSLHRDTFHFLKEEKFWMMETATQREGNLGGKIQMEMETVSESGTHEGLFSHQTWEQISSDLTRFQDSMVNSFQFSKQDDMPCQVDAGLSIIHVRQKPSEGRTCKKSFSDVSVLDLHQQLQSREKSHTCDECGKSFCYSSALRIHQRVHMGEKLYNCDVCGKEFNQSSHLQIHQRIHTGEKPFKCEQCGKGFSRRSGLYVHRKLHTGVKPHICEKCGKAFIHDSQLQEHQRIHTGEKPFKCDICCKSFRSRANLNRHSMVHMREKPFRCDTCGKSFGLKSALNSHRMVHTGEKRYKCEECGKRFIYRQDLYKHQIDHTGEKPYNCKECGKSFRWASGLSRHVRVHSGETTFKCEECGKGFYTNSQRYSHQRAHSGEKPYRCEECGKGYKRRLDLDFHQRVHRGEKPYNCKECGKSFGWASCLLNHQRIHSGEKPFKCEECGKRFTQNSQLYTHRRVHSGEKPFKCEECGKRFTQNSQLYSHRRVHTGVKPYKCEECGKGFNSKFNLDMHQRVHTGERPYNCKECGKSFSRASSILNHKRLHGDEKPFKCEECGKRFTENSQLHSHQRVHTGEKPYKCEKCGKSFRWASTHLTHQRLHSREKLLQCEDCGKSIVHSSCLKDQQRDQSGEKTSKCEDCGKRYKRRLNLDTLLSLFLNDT
ZNF654, A0A1B0GWA0, UniProt A0A1B0GWA0, whole entry, looked up: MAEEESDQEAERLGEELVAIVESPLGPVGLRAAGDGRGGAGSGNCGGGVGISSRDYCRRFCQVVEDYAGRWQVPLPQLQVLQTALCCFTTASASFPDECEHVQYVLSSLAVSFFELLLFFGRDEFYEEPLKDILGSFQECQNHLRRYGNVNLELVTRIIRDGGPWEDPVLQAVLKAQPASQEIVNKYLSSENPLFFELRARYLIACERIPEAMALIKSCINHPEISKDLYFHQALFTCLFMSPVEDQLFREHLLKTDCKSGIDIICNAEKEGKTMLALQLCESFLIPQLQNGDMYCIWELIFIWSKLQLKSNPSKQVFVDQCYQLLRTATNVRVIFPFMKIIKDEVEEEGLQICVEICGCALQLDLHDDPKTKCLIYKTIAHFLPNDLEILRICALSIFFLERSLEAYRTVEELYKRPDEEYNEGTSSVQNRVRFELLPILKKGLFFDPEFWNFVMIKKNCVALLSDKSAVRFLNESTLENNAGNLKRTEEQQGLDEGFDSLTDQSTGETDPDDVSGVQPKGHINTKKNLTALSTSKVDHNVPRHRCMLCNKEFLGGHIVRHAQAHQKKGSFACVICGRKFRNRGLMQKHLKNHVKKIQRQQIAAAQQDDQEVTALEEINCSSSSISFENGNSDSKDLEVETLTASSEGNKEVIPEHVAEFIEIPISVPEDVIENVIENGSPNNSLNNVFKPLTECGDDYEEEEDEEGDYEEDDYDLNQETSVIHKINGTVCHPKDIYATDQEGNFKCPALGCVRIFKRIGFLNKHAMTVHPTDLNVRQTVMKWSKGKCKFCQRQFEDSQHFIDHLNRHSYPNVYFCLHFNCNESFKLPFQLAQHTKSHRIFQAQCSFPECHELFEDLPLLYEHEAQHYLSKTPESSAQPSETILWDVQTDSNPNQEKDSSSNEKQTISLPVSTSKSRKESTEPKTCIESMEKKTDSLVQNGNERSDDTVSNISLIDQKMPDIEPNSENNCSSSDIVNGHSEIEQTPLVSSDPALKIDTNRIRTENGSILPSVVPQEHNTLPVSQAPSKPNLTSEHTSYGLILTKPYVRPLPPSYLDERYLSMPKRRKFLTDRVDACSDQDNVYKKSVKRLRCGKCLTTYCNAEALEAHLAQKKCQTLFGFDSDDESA
UniProt Q8N0Y2: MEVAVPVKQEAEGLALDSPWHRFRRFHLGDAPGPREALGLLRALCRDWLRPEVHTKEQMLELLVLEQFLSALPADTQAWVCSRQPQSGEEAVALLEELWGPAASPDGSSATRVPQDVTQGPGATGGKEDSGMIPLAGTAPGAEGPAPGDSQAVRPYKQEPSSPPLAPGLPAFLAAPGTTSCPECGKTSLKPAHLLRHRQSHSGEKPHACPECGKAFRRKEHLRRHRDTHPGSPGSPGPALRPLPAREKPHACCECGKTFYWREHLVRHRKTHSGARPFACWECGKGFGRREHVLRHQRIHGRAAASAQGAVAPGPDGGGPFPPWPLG
UniProt Q8N1G0: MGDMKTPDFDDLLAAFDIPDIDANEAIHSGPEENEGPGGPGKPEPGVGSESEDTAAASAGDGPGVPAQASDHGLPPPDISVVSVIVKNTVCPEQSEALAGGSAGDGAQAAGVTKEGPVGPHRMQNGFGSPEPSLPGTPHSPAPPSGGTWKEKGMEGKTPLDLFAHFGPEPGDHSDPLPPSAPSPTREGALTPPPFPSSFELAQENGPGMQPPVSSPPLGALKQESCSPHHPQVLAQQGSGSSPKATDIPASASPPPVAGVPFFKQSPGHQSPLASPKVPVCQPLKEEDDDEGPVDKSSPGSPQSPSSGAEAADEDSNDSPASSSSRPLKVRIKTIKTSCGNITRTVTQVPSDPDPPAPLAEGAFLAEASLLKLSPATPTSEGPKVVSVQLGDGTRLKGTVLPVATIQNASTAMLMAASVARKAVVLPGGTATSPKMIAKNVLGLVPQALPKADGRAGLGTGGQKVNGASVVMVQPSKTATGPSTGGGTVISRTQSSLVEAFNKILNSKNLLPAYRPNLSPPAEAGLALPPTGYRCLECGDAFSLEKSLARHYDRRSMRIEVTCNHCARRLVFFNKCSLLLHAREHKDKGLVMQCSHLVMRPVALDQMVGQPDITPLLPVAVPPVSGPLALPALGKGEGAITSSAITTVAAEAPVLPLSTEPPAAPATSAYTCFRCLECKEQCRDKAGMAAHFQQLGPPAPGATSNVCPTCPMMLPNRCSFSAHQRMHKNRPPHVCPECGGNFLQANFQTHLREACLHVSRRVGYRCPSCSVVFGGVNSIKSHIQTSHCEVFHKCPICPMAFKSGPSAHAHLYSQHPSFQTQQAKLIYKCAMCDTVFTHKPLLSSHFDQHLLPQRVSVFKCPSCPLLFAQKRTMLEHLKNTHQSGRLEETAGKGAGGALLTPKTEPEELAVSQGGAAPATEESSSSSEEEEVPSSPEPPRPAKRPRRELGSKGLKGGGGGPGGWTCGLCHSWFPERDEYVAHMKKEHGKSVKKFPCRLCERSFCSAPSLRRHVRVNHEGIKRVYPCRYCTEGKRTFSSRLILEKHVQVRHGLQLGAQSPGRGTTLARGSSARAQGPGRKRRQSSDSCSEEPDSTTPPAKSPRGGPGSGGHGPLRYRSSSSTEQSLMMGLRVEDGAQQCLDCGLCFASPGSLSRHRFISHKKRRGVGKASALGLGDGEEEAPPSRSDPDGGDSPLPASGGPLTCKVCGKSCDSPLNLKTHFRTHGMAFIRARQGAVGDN
UniProt O43257, whole entry, looked up: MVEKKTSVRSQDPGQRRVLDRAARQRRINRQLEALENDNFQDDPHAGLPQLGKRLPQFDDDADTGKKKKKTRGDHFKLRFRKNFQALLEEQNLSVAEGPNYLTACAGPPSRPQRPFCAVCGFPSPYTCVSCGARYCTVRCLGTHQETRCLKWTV

Columns and labels:
Test in all cases: log2 fold change, soluble protein after heating vs DMSO (PISA); higher = thermal stabilisation; K562 lysate, 10 uM; active = over 0.2 and 3.5 SD of the protein, either way, in both replicates (recomputed)
[1] = compound: O=C(CCCCCCC(=O)Nc1ccccc1)NO [vorinostat]
Summary of the method: (§1)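 Thermal stability, expressed as log-two fold change relative to solvent controls, is given from duplicates. Crude K562 extract in PBS pH 7.4 with 1 mM MgCl2, at 1 mg/mL protein, was treated with 10 μM compound for 30 min and heated in aliquots for 3 min across 48°C-58°C. After pooling, adjustment to 0.5% NP-40 at 4°C and centrifugation at 21,000xg for 90 min, supernatant protein was measured by TMTpro 16plex LC-MS/MS with channel sums equalised.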

[2] = compound: O=C(O)c1ccc2c(c1)nc(Nc1cccc(Cl)c1)c1ccncc12 [silmitasertib]
Summary of the method: as §1

[3] = compound: NCC(=O)Nc1ccc(-n2nc(C(F)(F)F)cc2-c2ccc3c(ccc4ccccc43)c2)cc1
Summary of the method: as §1

[4] = compound: O=C1NC(=O)C(c2cnc3ccccn23)=C1c1cn2c3c(cc(F)cc13)CN(C(=O)N1CCCCC1)CC2
Summary of the method: as §1

[5] = compound: c1cn2cc(-c3ccc4cn[nH]c4c3)nc(Nc3ccc(N4CCOCC4)cc3)c2n1 [entospletinib]
Summary of the method: as §1

Target	log2 fold change [1]	log2 fold change [2]	log2 fold change [3]	log2 fold change [4]	log2 fold change [5]
ZNF561-AS1 (UniProt K7EIQ3)	inactive: 0.133	inactive: 0.232	–	–	–
ZNF93 (UniProt P35789)	inactive: 0.022	inactive: -0.117	inactive: 0.008	inactive: -0.045	inactive: 0.063
ZSCAN25 (UniProt Q6NSZ9)	inactive: -0.042	inactive: 0.045	–	–	–
ZKSCAN3 (UniProt Q9BRR0)	inactive: 0.017	inactive: -0.091	inactive: 0.32	inactive: 0.082	inactive: -0.018
ZNF507 (UniProt Q8TCN5)	inactive: -0.025	inactive: 0.009	inactive: -0.004	inactive: 0.004	inactive: -0.002
ZNF598 isoform 3 (UniProt Q86UK7)	active: -0.338	inactive: 0	inactive: 0.01	inactive: 0.024	inactive: -0.017
ZNF225 (UniProt Q9UK10)	inactive: 0.274	inactive: -0.011	inactive: 0.467	–	inactive: -0.056
ZNF654, A0A1B0GWA0	inactive: -0.212	inactive: -0.023	–	inactive: 0.171	–
ZNF444 (UniProt Q8N0Y2)	–	–	–	inactive: 0.239	–
ZNF687 (UniProt Q8N1G0)	inactive: -0.056	inactive: -0.028	–	inactive: -0.079	inactive: -0.105
ZNHIT1 (UniProt O43257)	inactive: 0.001	inactive: 0.011	–	–	inactive: -0.008
ZNF574 isoform 2 (UniProt Q6ZN55)	inactive: 0.107	inactive: 0.036	–	inactive: -0.159	inactive: -0.095

Reprinted at random: 2 entries already listed, in no set order.
Target	log2 fold change [1]	log2 fold change [2]	log2 fold change [3]	log2 fold change [4]	log2 fold change [5]
ZNF598 isoform 3 (UniProt Q86UK7)	active: -0.338	inactive: 0	inactive: 0.01	inactive: 0.024	inactive: -0.017
ZNF225 (UniProt Q9UK10)	inactive: 0.274	inactive: -0.011	inactive: 0.467	–	inactive: -0.056
